From article PMC6286387, “Physical and thermodynamic characterization of the rice gibberellin receptor/gibberellin/DELLA protein complex” (Scientific Reports, 2018)
Results are given in words; binding and its absence hold for the method and conditions named.

Target: T1, SLR1(M28-A112)ΔDELLA(E40-D56) (rice (Oryza sativa)) (UniProt Q7G7J6)
T1 sequence: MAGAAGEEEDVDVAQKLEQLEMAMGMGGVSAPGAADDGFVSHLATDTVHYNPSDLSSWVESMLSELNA
Assay: ITC; 10 μl aliquants of 400 μM OsGID1/GA3 into 1.4482 ml of 50 μM SLR1 variant, 30 °C, 20 mM sodium phosphate (pH 7.5), 150 mM NaCl, 2.0 mM β-ME, 0.1 mM GA3; both purified

B1: OsGID1 (rice gibberellin receptor GID1), Trx-free, used as the OsGID1/GA3 complex (receptor, rice (Oryza sativa), UniProt Q6L545 1-354, looked up)
chain: MAGSDEVNRNECKTVVPLHTWVLISNFKLSYNILRRADGTFERDLGEYLDRRVPANARPLEGVSSFDHIIDQSVGLEVRIYRAAAEGDAEEGAAAVTRPILEFLTDAPAAEPFPVIIFFHGGSFVHSSASSTIYDSLCRRFVKLSKGVVVSVNYRRAPEHRYPCAYDDGWTALKWVMSQPFMRSGGDAQARVFLSGDSSGGNIAHHVAVRAADEGVKVCGNILLNAMFGGTERTESERRLDGKYFVTLQDRDWYWKAYLPEDADRDHPACNPFGPNGRRLGGLPFAKSLIIVSGLDLTCDRQLAYADALREDGHHVKVVQCENATVGFYLLPNTVHYHEVMEEISDFLNANLYY
notes: Gibberellin receptor GID1 of rice (Oryza sativa); theoretical MW of the dimer printed as 79.2 kDa; The printed mass (39.6 kDa a monomer) fits the whole protein; source: recombinant, purified
How did the binding turn out when B1 was run?
Its binding is “no binding (tested: 50 μM SLR1 mutants and 400 μM OsGID1/GA3)”.
